For at least one compound, name, drawing or mass did not settle the structure.
Tested on: patients with fasting triglyceride levels >200 mg/dl and <500 mg/dl despite statin therapy
Assay: 12-week placebo-controlled study of >96% E-EPA: fasting triglycerides (TG), incl. TG goal
Type: in vivo, human
Settings: 4 g/day, Example 2 subset (patients with lipoprotein data)
Description: A multi-center, placebo-controlled, randomized, double-blind, 12-week study was performed to evaluate the efficacy and safety of >96% E-EPA in patients with fasting triglyceride levels >200 mg/dl and <500 mg/dl despite statin therapy (the mean of two qualifying entry values needed to be >185 mg/dl and at least one of the values needed to be >200 mg/dl). The primary objective of the study was to determine the efficacy of >96% E-EPA 2 g daily and 4 g daily, compared to placebo, in lowering fasting TG levels in patients with high risk for cardiovascular disease and with fasting TG levels 200 mg/dl and <500 mg/dl, despite treatment to LDL-C goal on statin therapy. The population for this study was men and women >18 years of age with a body mass index ≤45 kg/m^2 with fasting TG levels greater than or equal to 200 mg/dl and less than 500 mg/dl and on a stable does of statin therapy (with or without ezetimibe). The statin was atorvostatin, rosuvastatin or simvastatin. The dose of statin must have been stable for ≥4 weeks prior to the LDL-C/TG baseline qualifying measurement for randomization. The statin dose was optimized such that the patients are at their LDL-C goal at the LDL-C/TG baseline qualifying measurements. The same statin at the same dose was continued until the study ended. […]

With `CC/C=C\C/C=C\C/C=C\C/C=C\C/C=C\CCCC(=O)OCC` [AMR101, ethyl eicosapentaenoate] the “Triglycerides versus placebo at 12 weeks” value was “significant reductions”.
